Test results: the supplement of paper PMC8728848
The other results are listed elsewhere or left out.

Experiments:
Test in all cases: glycan array binding signal (z-score within array); higher = stronger binding
Details in all cases: glycan notation: IUPAC condensed, linker removed
[1] = target: GlcNAc(b1-4)GlcNAc(b1-4)GlcNAc(b1-4)GlcNAc(b1-4)GlcNAc
Method in brief: (§1)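 From the Consortium for Functional Glycomics database, 3228 arrays were curated, keeping only those whose protein sequence was available. Binding is given as a within-array Z-score averaged across arrays sharing a protein sequence and across linkers. Negative Z-scores can be read as non-binding.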

[2] = target: GlcNAc(b1-4)GlcNAc(b1-4)GlcNAc(b1-4)GlcNAc(b1-4)GlcNAc(b1-4)GlcNAc
Method in brief: as §1

[3] = target: GlcNAc(b1-4)[GlcNAc(b1-6)]GalNAc
Method in brief: as §1

[4] = target: GlcNAc(b1-6)Gal(b1-4)GlcNAc
Method in brief: as §1

GlcNAc(b1-6)GalNAc = target: GlcNAc(b1-6)GalNAc
Method in brief: as §1

[5] = target: GlcNAc6S(b1-3)Gal(b1-4)GlcNAc
Method in brief: as §1

Kdn(a2-3)Gal(b1-3)GalNAc = target: Kdn(a2-3)Gal(b1-3)GalNAc
Method in brief: as §1

Kdn(a2-3)Gal(b1-3)GlcNAc = target: Kdn(a2-3)Gal(b1-3)GlcNAc
Method in brief: as §1

Kdn(a2-3)Gal(b1-4)Glc = target: Kdn(a2-3)Gal(b1-4)Glc
Method in brief: as §1

Kdn(a2-3)Gal(b1-4)GlcNAc = target: Kdn(a2-3)Gal(b1-4)GlcNAc
Method in brief: as §1

[6] = target: Kdn(a2-3)Gal(b1-4)[Fuc(a1-3)]GlcNAc
Method in brief: as §1

Kdn(a2-6)Gal(b1-4)GlcNAc = target: Kdn(a2-6)Gal(b1-4)GlcNAc
Method in brief: as §1

[7] = target: Man(a1-2)Man(a1-2)Man(a1-3)Man
Method in brief: as §1

[8] = target: Man(a1-2)Man(a1-2)Man(a1-6)[Man(a1-3)]Man
Method in brief: as §1

Man(a1-2)Man(a1-3)Man = target: Man(a1-2)Man(a1-3)Man
Method in brief: as §1

[9] = target: Man(a1-2)Man(a1-3)[Man(a1-2)Man(a1-6)]Man
Method in brief: as §1

[10] = target: Man(a1-2)Man(a1-3)[Man(a1-2)Man(a1-6)]Man(a1-6)[Man(a1-2)Man(a1-2)Man(a1-3)]Man
Method in brief: as §1

[11] = target: Man(a1-2)Man(a1-3)[Man(a1-2)Man(a1-6)]Man(a1-6)[Man(a1-2)Man(a1-2)Man(a1-3)]Man(b1-4)GlcNAc(b1-4)GlcNAc
Method in brief: as §1

[12] = target: Man(a1-2)Man(a1-3)[Man(a1-6)]Man(a1-6)[Man(a1-2)Man(a1-3)]Man(b1-4)GlcNAc(b1-4)GlcNAc
Method in brief: as §1

[13] = target: Man(a1-2)Man(a1-6)[Man(a1-3)]Man(a1-6)[Man(a1-2)Man(a1-2)Man(a1-3)]Man
Method in brief: as §1

[14] = target: Man(a1-2)Man(a1-6)[Man(a1-3)]Man(a1-6)[Man(a1-2)Man(a1-2)Man(a1-3)]Man(b1-4)GlcNAc(b1-4)GlcNAc
Method in brief: as §1

Man(a1-3)[Man(a1-6)]Man = target: Man(a1-3)[Man(a1-6)]Man
Method in brief: as §1

[15] = target: Man(a1-3)[Man(a1-6)]Man(a1-6)[Man(a1-2)Man(a1-3)]Man(b1-4)GlcNAc(b1-4)GlcNAc
Method in brief: as §1

[16] = target: Man(a1-3)[Man(a1-6)]Man(a1-6)[Man(a1-3)]Man
Method in brief: as §1

[17] = target: Man(a1-3)[Man(a1-6)]Man(a1-6)[Man(a1-3)]Man(b1-4)GlcNAc(b1-4)GlcNAc
Method in brief: as §1

[18] = target: Man(a1-3)[Man(a1-6)]Man(b1-4)GlcNAc(b1-4)GlcNAc
Method in brief: as §1

[19] = target: Man(a1-3)[Man(a1-6)]Man(b1-4)GlcNAc(b1-4)[Fuc(a1-6)]GlcNAc
Method in brief: as §1

Man(a1-6)Man = target: Man(a1-6)Man
Method in brief: as §1

Man(b1-4)GlcNAc = target: Man(b1-4)GlcNAc
Method in brief: as §1

MurNAc(b1-4)GlcNAc = target: MurNAc(b1-4)GlcNAc
Method in brief: as §1

Neu5Ac(a2-3)Gal = target: Neu5Ac(a2-3)Gal
Method in brief: as §1

[20] = target: Neu5Ac(a2-3)Gal(b1-3)GalNAc
Method in brief: as §1

[21] = target: Neu5Ac(a2-3)Gal(b1-3)GalNAc(b1-3)Gal(a1-4)Gal(b1-4)Glc
Method in brief: as §1

[22] = target: Neu5Ac(a2-3)Gal(b1-3)GalNAc(b1-4)Gal(b1-4)Glc
Method in brief: as §1

[23] = target: Neu5Ac(a2-3)Gal(b1-3)GalNAc(b1-4)[Neu5Ac(a2-3)]Gal(b1-4)Glc
Method in brief: as §1

[24] = target: Neu5Ac(a2-3)Gal(b1-3)GalNAc(b1-4)[Neu5Ac(a2-8)Neu5Ac(a2-3)]Gal(b1-4)Glc
Method in brief: as §1

[25] = target: Neu5Ac(a2-3)Gal(b1-3)GalNAc6S
Method in brief: as §1

B1: Erv41-EDTA (Saccharomyces cerevisiae), Q04651 (protein)
chain: MKFLVNVALVFMVVYISYIYAAAPEHHHHHHDYDIPTTENLYFQGAMGYIDQQYVVDSQVRDTVQINMDIYVNTKCDWLQINVRDQTMDRKLVLEELQLEEMPFFIPYDTKVNDINEIITPELDEILGEAIPAEFREKLDTRSFFDESDPNKAHLPEFNGCHVFGSIPVNRVSGELQITAKSLGYVASRKAPLEELKFNHVINEFSFGDFYPYIDNPLDNTAQFNQDEPLTTYVYYTSVVPTLFKKLGAEVDTNQYSVNDYRYLYKDVAAKGDKMPGIFFKYNFEPLSIVVSDVRL
- glycan array binding signal (z-score) [1]: -0.85
- glycan array binding signal (z-score) [2]: -0.727
- glycan array binding signal (z-score) [3]: -1.1
- glycan array binding signal (z-score) [4]: -0.106
- glycan array binding signal (z-score) (GlcNAc(b1-6)GalNAc): -0.916
- glycan array binding signal (z-score) [5]: 0.896
- glycan array binding signal (z-score) (Kdn(a2-3)Gal(b1-3)GalNAc): 0.349
- glycan array binding signal (z-score) (Kdn(a2-3)Gal(b1-3)GlcNAc): -0.267
- glycan array binding signal (z-score) (Kdn(a2-3)Gal(b1-4)Glc): -0.865
- glycan array binding signal (z-score) (Kdn(a2-3)Gal(b1-4)GlcNAc): -0.528
- glycan array binding signal (z-score) [6]: 0.702
- glycan array binding signal (z-score) (Kdn(a2-6)Gal(b1-4)GlcNAc): 0.261
- glycan array binding signal (z-score) [7]: -0.638
- glycan array binding signal (z-score) [8]: 0.403
- glycan array binding signal (z-score) (Man(a1-2)Man(a1-3)Man): -0.344
- glycan array binding signal (z-score) [9]: -1.38
- glycan array binding signal (z-score) [10]: 0.075
- glycan array binding signal (z-score) [11]: 0.06
- glycan array binding signal (z-score) [12]: -0.87
- glycan array binding signal (z-score) [13]: -0.411
- glycan array binding signal (z-score) [14]: 0.26
- glycan array binding signal (z-score) (Man(a1-3)[Man(a1-6)]Man): 0.572
- glycan array binding signal (z-score) [15]: -0.152
- glycan array binding signal (z-score) [16]: 0.135
- glycan array binding signal (z-score) [17]: 0.109
- glycan array binding signal (z-score) [18]: 0.012
- glycan array binding signal (z-score) [19]: -0.081
- glycan array binding signal (z-score) (Man(a1-6)Man): 0.132
- glycan array binding signal (z-score) (Man(b1-4)GlcNAc): 0.243
- glycan array binding signal (z-score) (MurNAc(b1-4)GlcNAc): -0.89
- glycan array binding signal (z-score) (Neu5Ac(a2-3)Gal): 0.106
- glycan array binding signal (z-score) [20]: -0.144
- glycan array binding signal (z-score) [21]: 0.327
- glycan array binding signal (z-score) [22]: 0.966
- glycan array binding signal (z-score) [23]: -0.473
- glycan array binding signal (z-score) [24]: -0.934
- glycan array binding signal (z-score) [25]: -0.781
